Paper PMC3877277
These are yes or no findings as the source states them, for the method shown. Binding seen in cells or lysates may run through a third protein. Some entries that bind do so weakly or less than the wild type.

Columns and labels:
[1] = molecular target: GST-D2i3 (third intracellular loop of DRD2, amino acid residues 212-373) (human) (UniProt P14416); assay: pull-down; 10 ug purified GST-D2i3 incubated with rat brain lysate 1.5 h at 4 C; GSH-Sepharose 4B beads 1 h; rinsed 4 times with lysis buffer; Western blot with anti-Cdk5 and anti-p35; only the target purified
[2] = molecular target: DRD2-GFP (human dopamine D2 receptor long isoform) (human) (UniProt P14416); assay: co-IP; anti-GFP immunoprecipitation from transfected HEK 293 cell lysates in ELB lysis buffer, 3 h at 4 C, protein-A agarose; Western blot

| binding [1] | binding [2] | Substance |
| --- | --- | --- |
| binds | – | Cdk5/p35 complex (endogenous, rat brain) (from UniProt Q03114 1-292; P61810 1-307) |
| – | binds | HA-Cdk5/p35 complex (human, expressed in HEK 293 cells) (from UniProt Q00535 1-292; Q15078 1-307) |
